Measured values reported in PubChem BioAssay (NCATS).
This list was built around the results that the source calls inconclusive (neither active nor inactive); the mix of calls is not that of the screen. For part of these data: Potencies of inconclusive entries are doubtful fits and often do not repeat. Calls of active or inactive are those of the source. Calls follow the shape of the dose curve; as a rule, active = well fitted curve in the direction sought with a large enough effect; inconclusive = small, poorly fitted or top-dose-only effect, or another doubt; inactive = no such curve, though single readings can be large; an effect the other way counts as inactive or inconclusive.

By UniProt entry, the sequences of proteins in these tests, tags left out. Where a name states a change or a piece, a line headed by the entry shows the natural chain unless it says otherwise.
UniProt Q14191, whole entry, looked up: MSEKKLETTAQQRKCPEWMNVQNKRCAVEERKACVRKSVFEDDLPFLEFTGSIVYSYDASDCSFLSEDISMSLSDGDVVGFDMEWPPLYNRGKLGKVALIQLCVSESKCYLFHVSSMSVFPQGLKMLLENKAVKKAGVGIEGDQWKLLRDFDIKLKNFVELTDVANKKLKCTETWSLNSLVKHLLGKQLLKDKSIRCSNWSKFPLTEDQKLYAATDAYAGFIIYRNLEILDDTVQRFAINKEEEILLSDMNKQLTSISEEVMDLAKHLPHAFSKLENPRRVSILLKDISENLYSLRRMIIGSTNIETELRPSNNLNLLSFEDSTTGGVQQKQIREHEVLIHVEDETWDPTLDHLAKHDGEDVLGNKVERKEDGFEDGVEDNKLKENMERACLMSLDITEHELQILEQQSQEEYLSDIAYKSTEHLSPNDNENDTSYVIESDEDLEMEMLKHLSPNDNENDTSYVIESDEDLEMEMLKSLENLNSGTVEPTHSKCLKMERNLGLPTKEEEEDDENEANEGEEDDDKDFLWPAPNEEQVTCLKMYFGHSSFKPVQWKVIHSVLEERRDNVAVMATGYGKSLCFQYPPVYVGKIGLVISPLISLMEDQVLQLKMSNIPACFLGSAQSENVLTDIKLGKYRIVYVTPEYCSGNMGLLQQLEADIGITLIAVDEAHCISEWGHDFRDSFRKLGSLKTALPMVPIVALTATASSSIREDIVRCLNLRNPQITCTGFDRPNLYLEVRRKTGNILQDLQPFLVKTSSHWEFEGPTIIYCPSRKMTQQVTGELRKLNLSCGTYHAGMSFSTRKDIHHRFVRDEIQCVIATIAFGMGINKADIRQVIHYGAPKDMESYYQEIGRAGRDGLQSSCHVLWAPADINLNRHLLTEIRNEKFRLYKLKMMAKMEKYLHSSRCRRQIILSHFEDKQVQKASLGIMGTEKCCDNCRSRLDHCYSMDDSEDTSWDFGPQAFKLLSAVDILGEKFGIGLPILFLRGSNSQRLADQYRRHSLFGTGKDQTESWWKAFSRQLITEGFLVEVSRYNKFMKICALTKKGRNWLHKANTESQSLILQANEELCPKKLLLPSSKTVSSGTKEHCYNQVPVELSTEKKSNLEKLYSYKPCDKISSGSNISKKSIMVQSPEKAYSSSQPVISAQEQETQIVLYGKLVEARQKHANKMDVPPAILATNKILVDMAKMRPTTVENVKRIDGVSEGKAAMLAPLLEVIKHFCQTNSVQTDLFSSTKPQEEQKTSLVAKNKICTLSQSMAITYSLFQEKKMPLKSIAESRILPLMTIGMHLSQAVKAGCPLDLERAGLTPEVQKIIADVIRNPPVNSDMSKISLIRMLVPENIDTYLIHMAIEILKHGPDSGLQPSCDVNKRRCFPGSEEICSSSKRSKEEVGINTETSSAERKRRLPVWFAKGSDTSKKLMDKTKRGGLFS
UniProt P54132: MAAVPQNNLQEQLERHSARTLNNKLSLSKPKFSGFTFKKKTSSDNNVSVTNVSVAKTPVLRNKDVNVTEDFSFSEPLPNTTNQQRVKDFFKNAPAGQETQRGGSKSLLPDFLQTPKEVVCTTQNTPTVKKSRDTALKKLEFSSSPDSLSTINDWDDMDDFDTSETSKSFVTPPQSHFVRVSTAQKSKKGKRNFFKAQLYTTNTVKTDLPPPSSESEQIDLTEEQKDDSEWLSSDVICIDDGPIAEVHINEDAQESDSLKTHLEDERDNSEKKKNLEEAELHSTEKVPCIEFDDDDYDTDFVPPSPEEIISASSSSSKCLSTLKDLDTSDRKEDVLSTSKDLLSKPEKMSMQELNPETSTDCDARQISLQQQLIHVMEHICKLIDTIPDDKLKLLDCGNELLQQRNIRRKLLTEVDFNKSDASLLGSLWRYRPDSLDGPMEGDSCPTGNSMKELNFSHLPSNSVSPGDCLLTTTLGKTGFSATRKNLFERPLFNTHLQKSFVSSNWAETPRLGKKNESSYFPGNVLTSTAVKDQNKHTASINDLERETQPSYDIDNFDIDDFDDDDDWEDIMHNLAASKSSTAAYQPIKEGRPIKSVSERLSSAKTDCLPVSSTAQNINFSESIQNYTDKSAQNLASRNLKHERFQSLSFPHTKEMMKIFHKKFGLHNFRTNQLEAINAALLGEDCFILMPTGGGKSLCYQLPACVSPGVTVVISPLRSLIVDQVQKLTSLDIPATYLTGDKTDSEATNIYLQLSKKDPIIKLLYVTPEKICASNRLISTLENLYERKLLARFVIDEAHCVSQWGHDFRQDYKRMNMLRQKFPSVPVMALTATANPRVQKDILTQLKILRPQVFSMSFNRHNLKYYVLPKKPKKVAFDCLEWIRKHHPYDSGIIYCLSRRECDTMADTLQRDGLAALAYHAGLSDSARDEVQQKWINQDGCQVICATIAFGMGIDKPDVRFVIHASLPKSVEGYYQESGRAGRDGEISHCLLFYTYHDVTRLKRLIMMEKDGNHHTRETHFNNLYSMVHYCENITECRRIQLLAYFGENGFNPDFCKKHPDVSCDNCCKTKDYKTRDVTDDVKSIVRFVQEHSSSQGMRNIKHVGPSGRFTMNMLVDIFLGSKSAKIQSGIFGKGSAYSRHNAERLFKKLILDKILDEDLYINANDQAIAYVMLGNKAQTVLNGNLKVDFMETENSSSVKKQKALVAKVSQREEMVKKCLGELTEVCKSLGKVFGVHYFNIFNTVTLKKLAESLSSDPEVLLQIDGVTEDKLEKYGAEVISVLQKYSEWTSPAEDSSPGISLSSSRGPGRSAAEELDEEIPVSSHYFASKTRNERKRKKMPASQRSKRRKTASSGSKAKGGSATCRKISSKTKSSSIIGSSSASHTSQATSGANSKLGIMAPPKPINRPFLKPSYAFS
UniProt P39748, whole entry, looked up: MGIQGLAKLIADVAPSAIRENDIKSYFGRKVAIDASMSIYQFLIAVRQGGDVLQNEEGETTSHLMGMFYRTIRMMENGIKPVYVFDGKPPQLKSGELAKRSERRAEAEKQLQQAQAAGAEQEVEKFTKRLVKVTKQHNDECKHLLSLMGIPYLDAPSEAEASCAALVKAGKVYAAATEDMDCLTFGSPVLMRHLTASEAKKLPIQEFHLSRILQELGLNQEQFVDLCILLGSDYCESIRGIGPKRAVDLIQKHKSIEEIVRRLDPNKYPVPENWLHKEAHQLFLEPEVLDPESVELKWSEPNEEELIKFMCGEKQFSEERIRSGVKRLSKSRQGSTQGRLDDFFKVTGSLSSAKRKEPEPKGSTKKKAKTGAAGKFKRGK
UniProt Q9UBT6: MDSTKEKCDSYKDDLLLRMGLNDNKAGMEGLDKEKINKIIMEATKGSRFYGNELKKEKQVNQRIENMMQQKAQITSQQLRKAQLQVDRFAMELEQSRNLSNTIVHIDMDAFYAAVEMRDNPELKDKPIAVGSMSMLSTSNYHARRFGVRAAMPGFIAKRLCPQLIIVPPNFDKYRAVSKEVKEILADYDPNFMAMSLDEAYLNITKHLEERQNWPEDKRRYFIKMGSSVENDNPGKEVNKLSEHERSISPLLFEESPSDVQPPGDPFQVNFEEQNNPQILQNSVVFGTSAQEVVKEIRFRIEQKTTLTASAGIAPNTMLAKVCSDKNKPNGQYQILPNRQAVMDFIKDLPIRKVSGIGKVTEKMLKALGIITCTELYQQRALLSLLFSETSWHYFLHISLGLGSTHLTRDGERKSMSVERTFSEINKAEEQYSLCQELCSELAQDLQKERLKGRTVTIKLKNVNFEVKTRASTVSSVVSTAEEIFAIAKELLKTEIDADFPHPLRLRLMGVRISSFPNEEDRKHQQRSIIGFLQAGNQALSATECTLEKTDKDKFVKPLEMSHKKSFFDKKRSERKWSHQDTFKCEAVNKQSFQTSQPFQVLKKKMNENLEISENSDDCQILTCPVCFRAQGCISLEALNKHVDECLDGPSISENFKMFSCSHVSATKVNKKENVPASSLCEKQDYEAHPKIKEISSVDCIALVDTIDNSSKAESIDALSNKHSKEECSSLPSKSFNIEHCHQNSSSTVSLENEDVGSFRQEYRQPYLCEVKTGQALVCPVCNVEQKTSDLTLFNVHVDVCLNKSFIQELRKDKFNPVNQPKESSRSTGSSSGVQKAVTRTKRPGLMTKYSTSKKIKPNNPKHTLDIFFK
UniProt Q9UNA4: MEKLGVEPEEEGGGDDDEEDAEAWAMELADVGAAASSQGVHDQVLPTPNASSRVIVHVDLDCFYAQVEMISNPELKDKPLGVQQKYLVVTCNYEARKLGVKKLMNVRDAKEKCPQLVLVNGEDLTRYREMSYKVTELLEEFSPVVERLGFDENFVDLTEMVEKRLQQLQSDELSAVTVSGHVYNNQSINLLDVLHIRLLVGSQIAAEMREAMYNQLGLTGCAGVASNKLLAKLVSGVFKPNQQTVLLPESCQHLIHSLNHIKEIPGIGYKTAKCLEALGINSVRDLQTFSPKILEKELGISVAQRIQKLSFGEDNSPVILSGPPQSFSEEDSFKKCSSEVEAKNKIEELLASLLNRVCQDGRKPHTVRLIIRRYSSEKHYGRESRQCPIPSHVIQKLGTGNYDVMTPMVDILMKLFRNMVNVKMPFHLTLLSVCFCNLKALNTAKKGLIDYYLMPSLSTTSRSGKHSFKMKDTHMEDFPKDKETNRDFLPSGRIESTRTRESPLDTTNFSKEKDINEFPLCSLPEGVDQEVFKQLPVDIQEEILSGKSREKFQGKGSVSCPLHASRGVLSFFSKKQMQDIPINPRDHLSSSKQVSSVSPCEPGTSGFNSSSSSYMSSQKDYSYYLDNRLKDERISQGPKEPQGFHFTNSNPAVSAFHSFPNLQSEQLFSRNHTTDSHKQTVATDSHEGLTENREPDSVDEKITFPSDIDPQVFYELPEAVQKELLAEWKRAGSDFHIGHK
UniProt Q9Y253: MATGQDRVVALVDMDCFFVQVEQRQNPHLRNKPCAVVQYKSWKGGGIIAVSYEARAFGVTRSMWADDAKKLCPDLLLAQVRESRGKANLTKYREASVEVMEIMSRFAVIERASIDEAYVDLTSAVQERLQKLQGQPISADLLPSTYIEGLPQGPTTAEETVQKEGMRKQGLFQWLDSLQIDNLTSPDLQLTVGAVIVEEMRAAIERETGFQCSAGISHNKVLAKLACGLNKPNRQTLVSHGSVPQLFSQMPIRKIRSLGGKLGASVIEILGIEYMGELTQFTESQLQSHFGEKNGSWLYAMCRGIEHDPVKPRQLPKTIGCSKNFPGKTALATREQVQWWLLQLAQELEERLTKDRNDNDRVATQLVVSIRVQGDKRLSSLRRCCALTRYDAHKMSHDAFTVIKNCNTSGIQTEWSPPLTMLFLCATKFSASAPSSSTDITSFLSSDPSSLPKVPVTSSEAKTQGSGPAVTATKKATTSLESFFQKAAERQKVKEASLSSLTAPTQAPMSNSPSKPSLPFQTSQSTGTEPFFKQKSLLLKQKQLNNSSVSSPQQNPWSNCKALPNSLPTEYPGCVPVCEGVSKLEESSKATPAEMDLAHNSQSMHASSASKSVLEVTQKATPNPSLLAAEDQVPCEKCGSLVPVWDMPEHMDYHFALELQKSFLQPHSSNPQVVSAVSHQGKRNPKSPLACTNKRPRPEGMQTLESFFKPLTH

Tests used:
[1] = molecular target: Bifunctional 3'-5' exonuclease/ATP-dependent helicase WRN (Homo sapiens) (UniProt Q14191); experiment: qHTS for Inhibitors of WRN Helicase: Confirmatory Assay for Cherry-picked Compounds. (AID 720497); also: nearly all actives have a fitted effect of over 65% in size
Procedure, shortened: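 Helicase activity is tracked as a kinetic fluorescence signal (excitation 525 nm, emission 598 nm) after 100 nM forked duplex DNA and 2 mM ATP are added to 20 nM WRN that has been preincubated 15 min with compound at room temperature.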

[2] = molecular target: RecQ-like DNA helicase BLM (Homo sapiens) (UniProt P54132); experiment: qHTS for Inhibitors of WRN Helicase: BLM Helicase Counterscreen for WRN Inhibitors (AID 720503); conditions: Recombinant BLM helicase DNA unwinding, red fluorescence; series mostly up to 57.1 µM; also: nearly all actives have a fitted effect of over 60% in size
Procedure, shortened: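 BLM (1 nM) was preincubated with compounds for 15 min at room temperature in Tris-HCl pH 8.0, 50 mM NaCl, 2 mM MgCl2 buffer. Unwinding started with 100 nM DNA and 2 mM ATP (final); red fluorescence was read twice, 15 min apart.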

[3] = molecular target: Flap endonuclease 1 (Homo sapiens) (UniProt P39748); experiment: qHTS Assay for the Inhibitors of FEN1: Confirmatory Assay for Cherry-picked Compounds (AID 720498); conditions: FEN1 flap cleavage, TAMRA/BHQ2 fluorogenic DNA substrate; also: potency is read from the fitted curve at half-maximal effect; nearly all actives have a fitted effect of over 60% in size
Procedure, shortened: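 FEN1 at 10 nM was preincubated with compound for 15 min at room temperature, then 50 nM (final) double-flap DNA substrate was added. TAMRA fluorescence released from the BHQ-2-quenched flap was read at 0 and 15 min (ex 525/em 598 nm).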

[4] = molecular target: DNA polymerase kappa (Homo sapiens) (UniProt Q9UBT6); experiment: qHTS for Inhibitors of Polymerase Kappa: Confirmatory Assay for Cherry-picked Compounds (AID 720501); conditions: purified Pol-kappa, fluorescent strand-displacement substrate; also: potency is read from the fitted curve at half-maximal effect
Procedure, shortened: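 10 nM human Pol-kappa was preincubated with compound 15 min at room temperature, then 50 nM (final) primer/template substrate with TAMRA-labeled reporter strand and BHQ-2-labeled template added. Fluorescence (Ex 525, Em 598 nm) read at 0 and 10 min.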

[5] = molecular target: Phosphoglycerate kinase, glycosomal (Trypanosoma brucei brucei) (UniProt P07378); experiment: qHTS for inhibitors of Phosphogylcerate Kinase: Hit Validation Screen (AID 686980); also: potency is read from the fitted curve at half-maximal effect; nearly all actives have a fitted effect of over 65% in size
Procedure, shortened: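 Luminescent ATP detection (Kinase-Glo Plus) follows a 60-minute room-temperature incubation, with wells lacking PGK as controls. Buffer: 100 mM TEA (pH 7.6), 5 mM MgCl2, 0.01% Tween-20. Coupling enzyme GAPDH (100 nM final) supplies unstable 1,3-BPG in-well.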

[6] = qHTS for Inhibitors of WRN Helicase: Thiazole Orange DNA Binding Counterscreen (AID 720499);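 also: drop in dye fluorescence marks compound binding to DNA; nearly all actives have a fitted effect of over 60% in size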; also: potency is read from the fitted curve at half-maximal effect
Procedure, shortened: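 After pintool transfer of compounds into a thiazole orange/DNA mixture (100 nM and 50 nM respectively) and 15 min at room temperature, plates were imaged for fluorescence at 530 nm emission, 480 nm excitation.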

[7] = molecular target: DNA polymerase iota (Homo sapiens) (UniProt Q9UNA4); experiment: qHTS for Inhibitors of Polymerase Iota: Confirmatory Assay for Cherry-picked Compounds (AID 720496); conditions: Pol iota primer extension, TAMRA/BHQ fluorescence; also: potency is read from the fitted curve at half-maximal effect
Procedure, shortened: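 Recombinant human Pol iota (10 nM) was preincubated with compound for 15 min at room temperature, then 50 nM final primer/template substrate was added; the substrate carried a TAMRA-labeled reporter strand and a BHQ-2-quenched template. Fluorescence was read at 0 and 10 min.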

[8] = molecular target: DNA polymerase eta (Homo sapiens) (UniProt Q9Y253); experiment: qHTS for Inhibitors of Polymerase Eta: Confirmatory Assay for Cherry-picked Compounds (AID 720502); conditions: Pol eta primer extension, TAMRA/BHQ fluorescence, 10 min; also: potency is read from the fitted curve at half-maximal effect
Procedure, shortened: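 Quenched-fluorescence replication assay: 10 nM Pol eta, 50 nM substrate final, 15 min compound preincubation at room temperature, 10 min kinetic reaction read at 525/598 nm.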

## CC1CCCN(Cc2c(O)ccc3c2O/C(=C\c2ccco2)C3=O)C1 (stereo not drawn)
[1]
  Potency: inactive
[2]
  Potency: inactive

## N#Cc1c(SCC(=O)Nc2nc3ccc(Br)cc3s2)sc2c(O)cc(=O)[nH]c12
[3]
  Potency: inconclusive: 37.9 µM [inhibitor, partial curve]

## O=S(=O)(Nc1nc2n(n1)C(c1ccccc1)C=C(c1ccc(Cl)cc1)N2)c1ccccc1 (stereo not drawn)
[4]
  Potency: active: 67 µM

## O=C1c2ccccc2-c2onc3ccc(N4CCCC4)c1c23
[4]
  Potency: inconclusive: 94.7 µM [inhibitor, partial curve, poor fit]

## O=C(N/N=C/c1ccc(-c2ccc(S(=O)(=O)Nc3ncccn3)cc2)o1)c1cc2ccccc2cc1O
[5]
  Potency: inconclusive: 32.6 µM [inhibitor, single point]
[6]
  Potency: inconclusive: 17.1 µM [inhibitor, partial curve]

## COc1ccc(NC(=O)/C(C#N)=C/c2ccc(Br)o2)cc1
[7]
  Potency: inconclusive: 75.2 µM [inhibitor, partial curve]

## O=P(c1ccccc1)(c1ccccc1)c1cc(S(=O)(=O)O)ccc1O
[7]
  Potency: active: 23.8 µM

## O=C(CSc1nc2ccccc2c(=O)[nH]1)c1ccc(O)c(O)c1
[5]
  Potency: inconclusive: 4.61 µM [inhibitor, full curve]
[7]
  Potency: inconclusive: 37.7 µM [inhibitor, partial curve]
[8]
  Potency: active: 30.1 µM

## O=C(Nc1ccc(S(=O)(=O)Nc2nccs2)cc1)c1nn(-c2ccccc2)ccc1=O
[7]
  Potency: active: 21.2 µM

## O=C1CC(c2ccc(O)c(O)c2)Oc2c1ccc(O)c2O (stereo not drawn)
[5]
  Potency: active: 0.919 µM
[6]
  Potency: inconclusive: 21.5 µM [inhibitor, partial curve]

## COC(=O)c1ccccc1NC(=O)CCS(=O)(=O)c1ccc(Br)cc1
[5]
  Potency: inconclusive: 1.03 µM [inhibitor, full curve]
[6]
  Potency: inactive

## COc1ccccc1C(=O)OCc1cc(=O)n2nc(-c3cccs3)sc2n1
[7]
  Potency: inconclusive: 67 µM [inhibitor, partial curve]

## CC(C)CC(NC(=O)c1ccccc1)C(=O)N/N=C/c1ccco1 (stereo not drawn)
[5]
  Potency: inconclusive: 20.6 µM [inhibitor, partial curve]
[8]
  Potency: inconclusive: 84.9 µM [inhibitor, single point]

## C=C(C)C(=O)Nc1cccc(C2=NOC3(C2)C[C@@H](C(N)=O)N(C(=O)c2cc([N+](=O)[O-])cc([N+](=O)[O-])c2C)C3)c1 (stereo partly drawn)
[5]
  Potency: inconclusive: 3.26 µM [inhibitor, full curve]
[7]
  Potency: inconclusive: 75.2 µM [inhibitor, partial curve]

## CN(C)S(=O)(=O)c1cc(NC(=O)COC(=O)/C=C/c2ccco2)ccc1Cl
[5]
  Potency: inactive
[8]
  Potency: active: 67.5 µM

## CCc1nn2c(=O)cc(COc3cccc(NC(=O)c4ccco4)c3)nc2s1
[7]
  Potency: inconclusive: 75.2 µM [inhibitor, partial curve]

## Cc1cc(C)c(NC(=O)Cn2nnc(S(=O)(=O)c3ccc(C)c(C)c3)c2N)c(C)c1
[7]
  Potency: inconclusive: 67 µM [inhibitor, partial curve]

## COc1ccc2nc(NC(=O)c3nc(S(=O)(=O)Cc4ccccc4)ncc3Cl)sc2c1
[7]
  Potency: active: 29.9 µM

## C[n+]1cccc2cccc([O-])c21
[7]
  Potency: active: 23.8 µM

## CC(C)CCNC(=O)c1ccc2c(c1)NC(=O)C(CS(=O)(=O)Cc1ccc(F)cc1)N2 (stereo not drawn)
[7]
  Potency: inconclusive: 59.7 µM [inhibitor, partial curve]

## O=C(O)c1cc(N2N=C(C(F)(F)F)/C(=C/C=C/c3ccco3)C2=O)ccc1Cl
[5]
  Potency: active: 0.58 µM
[4]
  Potency: active: 0.119 µM

## Cc1ccccc1C(=O)Nc1ccc2c(C#N)c3nc4ccccc4nc3n2c1
[7]
  Potency: inconclusive: 42.3 µM [inhibitor, partial curve]

## CCOc1ccc(NC(=O)Cn2cc(C(=O)c3ccc(CC)cc3)c(=O)c3cc(C)ccc32)cc1
[7]
  Potency: inconclusive: 67 µM [inhibitor, partial curve]

## COc1ccc(-c2cc3ccccc3oc2=O)cc1NC(=O)c1ccc(Br)o1
[7]
  Potency: inconclusive: 29.9 µM [inhibitor, partial curve]

## Cc1cc(NC(=O)c2cncc(Br)c2)ccc1NC(=O)c1cc2ccccc2o1
[7]
  Potency: inconclusive: 29.9 µM [inhibitor, partial curve]

## CCCSc1nnc(NC(=O)c2sc3nc(-c4cccs4)ccc3c2N)s1
[7]
  Potency: inconclusive: 75.2 µM [inhibitor, partial curve]

## CCc1nnc(NC(=O)C(=O)c2cc(C)n(-c3ccccc3)c2C)s1
[7]
  Potency: inconclusive: 75.2 µM [inhibitor, partial curve]

## CCn1c2ccccc2c2cc(NC(=O)COC(=O)c3ccc(NC(=O)CC#N)cc3)ccc21
[7]
  Potency: inconclusive: 59.7 µM [inhibitor, partial curve]

## NS(=O)(=O)c1ccc(NC(=O)C2Cc3ccccc3CN2C(=O)c2ccco2)cc1 (stereo not drawn)
[7]
  Potency: inconclusive: 47.4 µM [inhibitor, partial curve]

## N=C1/C(=C\c2ccc(-c3ccc(C(=O)O)cc3)o2)C(=O)N=C2SC=C(c3ccccc3)N12
[7]
  Potency: active: 37.7 µM

## O=[N+]([O-])c1ccc2nc(SCc3cn4cc(Cl)ccc4n3)[nH]c2c1
[7]
  Potency: inconclusive: 67 µM [inhibitor, partial curve]

## CC(=O)Nc1ccc(S(=O)(=O)N2CCC(N3CCN(Cc4ccc(C)cc4)C(=O)C3=O)CC2)cc1
[7]
  Potency: inconclusive: 67 µM [inhibitor, partial curve]

## CCOc1cc(N2CCOCC2)c(OCC)cc1NC(=O)c1cc(-c2ccco2)nc2ccccc12
[7]
  Potency: inconclusive: 67 µM [inhibitor, partial curve]

## O=C(O)c1cccc2cccc(-c3c4ccc(=O)c(O)c-4oc4c(O)c(O)ccc34)c12
[5]
  Potency: active: 0.326 µM
[6]
  Potency: active: 4.29 µM

## Cc1cc(C(F)F)nn1CC(=O)NC1C(=O)N2C(C(=O)O)=C(CSc3nnnn3C)CSC12 (stereo not drawn)
[5]
  Potency: inactive
[8]
  Potency: inconclusive: 84.9 µM [inhibitor, single point]

## Cc1cc(=O)oc2cc(NC(=O)COc3ccccc3[N+](=O)[O-])ccc12
[7]
  Potency: inconclusive: 33.6 µM [inhibitor, partial curve]
